Our source for the binding values is paper PMC10506462.

Amino acid sequences for entries named in this document (tags omitted).
UniProt P31941: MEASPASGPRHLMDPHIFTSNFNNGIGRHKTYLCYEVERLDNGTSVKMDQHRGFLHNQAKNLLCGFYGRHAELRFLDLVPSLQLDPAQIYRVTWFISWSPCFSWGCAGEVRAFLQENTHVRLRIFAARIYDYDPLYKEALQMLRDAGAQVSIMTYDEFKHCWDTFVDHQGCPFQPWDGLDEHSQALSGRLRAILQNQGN
UniProt Q9UH17: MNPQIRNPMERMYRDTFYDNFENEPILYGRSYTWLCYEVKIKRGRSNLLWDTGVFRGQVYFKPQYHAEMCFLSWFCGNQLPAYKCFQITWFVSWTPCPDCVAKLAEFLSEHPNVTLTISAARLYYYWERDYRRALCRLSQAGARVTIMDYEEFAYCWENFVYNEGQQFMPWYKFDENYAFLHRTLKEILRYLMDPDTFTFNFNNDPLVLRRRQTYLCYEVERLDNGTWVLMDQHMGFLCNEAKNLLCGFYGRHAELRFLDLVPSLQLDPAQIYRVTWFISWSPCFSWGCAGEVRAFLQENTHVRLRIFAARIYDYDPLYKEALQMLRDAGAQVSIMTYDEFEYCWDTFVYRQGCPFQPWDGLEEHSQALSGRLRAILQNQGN
UniProt Q9HC16: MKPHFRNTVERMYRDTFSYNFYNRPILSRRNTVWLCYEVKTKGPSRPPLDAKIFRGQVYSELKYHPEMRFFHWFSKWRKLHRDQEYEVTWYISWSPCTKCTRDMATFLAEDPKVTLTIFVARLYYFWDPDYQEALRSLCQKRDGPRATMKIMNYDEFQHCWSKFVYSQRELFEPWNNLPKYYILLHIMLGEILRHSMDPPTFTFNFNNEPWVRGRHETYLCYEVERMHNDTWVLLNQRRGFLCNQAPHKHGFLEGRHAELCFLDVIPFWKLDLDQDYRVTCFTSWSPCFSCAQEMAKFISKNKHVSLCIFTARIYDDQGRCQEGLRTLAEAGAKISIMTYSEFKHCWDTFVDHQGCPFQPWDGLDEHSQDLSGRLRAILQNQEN

No constants are given. Whether binding was seen depends on the method and setting. Binding seen in cells or lysates may run through a third protein. Sequences can lack the tags named with a protein.

Test [1] deals with T1, HCMV UL45-FLAG (large subunit of the human cytomegalovirus ribonucleotide reductase) (human cytomegalovirus) (UniProt P16782).
T1 sequence: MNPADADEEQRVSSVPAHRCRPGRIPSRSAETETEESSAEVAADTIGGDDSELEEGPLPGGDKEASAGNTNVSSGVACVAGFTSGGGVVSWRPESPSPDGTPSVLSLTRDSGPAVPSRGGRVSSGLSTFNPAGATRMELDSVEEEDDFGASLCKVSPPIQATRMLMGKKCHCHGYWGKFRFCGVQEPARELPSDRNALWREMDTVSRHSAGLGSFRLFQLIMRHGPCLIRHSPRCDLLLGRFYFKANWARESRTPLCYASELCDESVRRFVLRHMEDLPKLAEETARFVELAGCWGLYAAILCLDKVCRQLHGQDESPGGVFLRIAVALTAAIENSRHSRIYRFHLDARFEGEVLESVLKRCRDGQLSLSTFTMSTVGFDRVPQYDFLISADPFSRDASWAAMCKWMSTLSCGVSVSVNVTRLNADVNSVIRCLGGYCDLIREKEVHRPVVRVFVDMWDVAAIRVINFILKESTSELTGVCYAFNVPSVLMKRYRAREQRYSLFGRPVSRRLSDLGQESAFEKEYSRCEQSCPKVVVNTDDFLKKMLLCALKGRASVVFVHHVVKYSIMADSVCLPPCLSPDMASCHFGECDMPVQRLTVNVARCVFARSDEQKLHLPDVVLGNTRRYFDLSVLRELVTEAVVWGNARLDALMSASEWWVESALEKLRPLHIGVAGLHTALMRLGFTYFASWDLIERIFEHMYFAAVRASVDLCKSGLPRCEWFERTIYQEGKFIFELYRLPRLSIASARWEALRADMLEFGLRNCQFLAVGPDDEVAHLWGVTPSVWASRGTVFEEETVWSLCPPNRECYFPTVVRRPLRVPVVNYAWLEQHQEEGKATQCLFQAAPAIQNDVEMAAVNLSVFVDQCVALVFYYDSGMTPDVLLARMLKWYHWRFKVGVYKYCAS
The experiment in a line: co-IP; 293T cells co-transfected with RNR-FLAG and A3-HA; lysis buffer 150 mM NaCl, 50 mM Tris-HCl, 10% glycerol, 1% IGEPAL, pH 7.4; anti-FLAG M2 magnetic beads overnight at 4°C; eluted with 3xFLAG peptide; immunoblot with anti-HA and anti-FLAG. (In western blotting, separated proteins are transferred to a membrane and probed.)

The target of test [2] is T2, EBV BORF2-FLAG (large subunit of the Epstein-Barr virus ribonucleotide reductase) (Epstein-Barr virus) (UniProt P03190).
T2 sequence: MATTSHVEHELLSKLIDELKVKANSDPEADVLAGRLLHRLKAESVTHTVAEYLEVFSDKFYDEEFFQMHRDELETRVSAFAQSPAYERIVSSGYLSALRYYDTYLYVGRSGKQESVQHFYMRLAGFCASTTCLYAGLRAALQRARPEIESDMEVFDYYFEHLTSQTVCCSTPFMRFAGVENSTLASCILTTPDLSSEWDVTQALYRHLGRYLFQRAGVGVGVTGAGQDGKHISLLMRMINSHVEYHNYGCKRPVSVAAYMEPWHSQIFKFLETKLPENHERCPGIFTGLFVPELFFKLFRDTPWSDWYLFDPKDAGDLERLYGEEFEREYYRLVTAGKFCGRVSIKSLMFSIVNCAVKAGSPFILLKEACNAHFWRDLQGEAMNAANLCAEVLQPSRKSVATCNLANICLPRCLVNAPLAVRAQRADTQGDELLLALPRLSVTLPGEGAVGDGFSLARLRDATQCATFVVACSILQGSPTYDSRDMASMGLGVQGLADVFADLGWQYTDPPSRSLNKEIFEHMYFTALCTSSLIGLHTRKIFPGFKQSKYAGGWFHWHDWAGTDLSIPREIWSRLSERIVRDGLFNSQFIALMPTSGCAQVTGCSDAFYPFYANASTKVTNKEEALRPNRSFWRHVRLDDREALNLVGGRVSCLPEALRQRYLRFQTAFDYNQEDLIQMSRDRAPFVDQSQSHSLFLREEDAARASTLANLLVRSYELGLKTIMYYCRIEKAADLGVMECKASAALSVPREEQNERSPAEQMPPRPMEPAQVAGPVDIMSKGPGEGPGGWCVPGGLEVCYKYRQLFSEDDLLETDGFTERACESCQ
The test is described as above.

“human APOBEC3A-HA (from UniProt P31941 1-199) (enzyme)”: the binding result in test [1] is “no binding”.

For “human APOBEC3B-HA (from UniProt Q9UH17 1-382) (enzyme)”, the binding result in test [1] was “no binding”.

As for “human APOBEC3G-HA (from UniProt Q9HC16 1-384) (enzyme)”, the binding entry in test [2] is listed as “no binding”.
